Values quoted from earlier work in patent US8440424B2, “Identification of antibiotic resistance using labelled antibiotics” (miacom Diagnostics GmbH, priority 2008, dated 2013).
Read-outs that look alike come from different tables or passages of the source. For at least one compound, name, drawing or mass did not settle the structure.

Tested on: 23S rRNA
Conditions: cited from earlier work

SMILES	Phenotype (23S rRNA position 2503 A to C, E. coli, Porse 1995)	Phenotype (23S rRNA position 2058 A to G, Chlamydomonas reinhardtii)	Phenotype (23S rRNA position 2611 "C to G", Chlamydomonas reinhardtii, Harris et al. 1989)	Phenotype (23S rRNA position 2611 "C to U", Chlamydomonas reinhardtii, Harris et al. 1989)
O=C(N[C@H](CO)[C@H](O)c1ccc([N+](=O)[O-])cc1)C(Cl)Cl [CAM]	CAMr			
CCC[C@@H]1C[C@@H](C(=O)N[C@@H]([C@H]2O[C@H](SC)[C@H](O)[C@@H](O)[C@H]2O)[C@H](C)Cl)N(C)C1 [clindamycin, Clindamycin, reference compound]		resistance.	low level	low level
